For assay [1], the target named is TRPML1‐mCherry (UniProt Q9GZU1). Kind of assay: co-IP; lysate of TRPML1‐mCherry stably expressing SH‐SY5Y cells transfected with GFP or GFP‐ALG2, treated with acrolein 2 h; anti‐RFP magnetic beads, 2 h at 4°C; 20 mM Tris–HCl pH 8.0, 150 mM NaCl, 1 mM CaCl2, 10% glycerol, 1% dodecyl maltoside, 0.2% deoxycholic acid.
A further assay has as its target TMEM55B‐myc‐DDK (UniProt Q86T03). Put plainly: co-IP; lysate of cells transfected with TMEM55B‐myc‐DDK, untreated or treated with 40 μM acrolein 2 h or 50 μM spm 4 h; anti‐flag M2 magnetic beads, 2 h at 4°C; 50 mM Hepes‐KOH pH 7.5, 300 mM KCl, 1 mM MgCl2, 1 mM EGTA, 10% glycerol, 1% Triton X‐100; blot for JIP4.
Assay [2] deals with TRPML1‐mCherry (UniProt Q9GZU1). Kind of assay: co-IP; immunoprecipitation assays told only in the discussion; bait, constructs and conditions not stated.

Amino acid sequences for entries named in this document (tags omitted).
UniProt Q9GZU1: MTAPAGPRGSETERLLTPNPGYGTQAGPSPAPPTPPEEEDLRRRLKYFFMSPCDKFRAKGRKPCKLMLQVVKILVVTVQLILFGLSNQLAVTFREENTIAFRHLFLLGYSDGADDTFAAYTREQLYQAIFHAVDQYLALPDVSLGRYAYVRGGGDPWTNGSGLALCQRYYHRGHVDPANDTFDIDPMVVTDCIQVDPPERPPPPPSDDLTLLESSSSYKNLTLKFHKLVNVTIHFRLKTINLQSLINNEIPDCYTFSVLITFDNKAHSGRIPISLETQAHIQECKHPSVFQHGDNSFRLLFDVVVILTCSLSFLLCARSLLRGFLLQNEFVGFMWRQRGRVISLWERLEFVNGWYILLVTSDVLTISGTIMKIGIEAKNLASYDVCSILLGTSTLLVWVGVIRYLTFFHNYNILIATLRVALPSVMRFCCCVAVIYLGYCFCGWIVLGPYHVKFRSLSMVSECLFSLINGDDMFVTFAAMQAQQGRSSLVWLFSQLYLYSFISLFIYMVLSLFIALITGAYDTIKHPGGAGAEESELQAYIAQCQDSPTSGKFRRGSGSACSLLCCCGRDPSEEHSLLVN
UniProt Q86T03: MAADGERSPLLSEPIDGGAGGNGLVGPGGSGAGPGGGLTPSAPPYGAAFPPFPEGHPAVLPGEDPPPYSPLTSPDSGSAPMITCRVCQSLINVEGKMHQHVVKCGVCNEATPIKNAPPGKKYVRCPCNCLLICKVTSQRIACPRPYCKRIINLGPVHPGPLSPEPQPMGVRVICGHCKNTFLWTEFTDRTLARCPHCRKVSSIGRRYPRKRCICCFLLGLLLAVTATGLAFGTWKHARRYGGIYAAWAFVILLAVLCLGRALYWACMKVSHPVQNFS
UniProt O75340: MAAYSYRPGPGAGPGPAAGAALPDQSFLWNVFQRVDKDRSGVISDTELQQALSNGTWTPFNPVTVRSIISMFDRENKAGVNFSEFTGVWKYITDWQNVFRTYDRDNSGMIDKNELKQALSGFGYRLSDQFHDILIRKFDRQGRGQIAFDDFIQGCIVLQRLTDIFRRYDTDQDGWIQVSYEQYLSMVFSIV

Results are given in words; binding and its absence hold for the method and conditions named. Binding seen in cells or lysates may run through a third protein. Some results given as binding are weak or reduced against the parent protein; the word gives no strength.

GFP‐ALG2 (from UniProt O75340 1-191): in the assay with TRPML1‐mCherry [1], the binding result was “binds”.

B1: JNK‐interacting protein 4 (JIP4), endogenous (protein, UniProt O60271 1-1321)
chain: MELEDGVVYQEEPGGSGAVMSERVSGLAGSIYREFERLIGRYDEEVVKELMPLVVAVLENLDSVFAQDQEHQVELELLRDDNEQLITQYEREKALRKHAEEKFIEFEDSQEQEKKDLQTRVESLESQTRQLELKAKNYADQISRLEEREAELKKEYNALHQRHTEMIHNYMEHLERTKLHQLSGSDQLESTAHSRIRKERPISLGIFPLPAGDGLLTPDAQKGGETPGSEQWKFQELSQPRSHTSLKVSNSPEPQKAVEQEDELSDVSQGGSKATTPASTANSDVATIPTDTPLKEENEGFVKVTDAPNKSEISKHIEVQVAQETRNVSTGSAENEEKSEVQAIIESTPELDMDKDLSGYKGSSTPTKGIENKAFDRNTESLFEELSSAGSGLIGDVDEGADLLGMGREVENLILENTQLLETKNALNIVKNDLIAKVDELTCEKDVLQGELEAVKQAKLKLEEKNRELEEELRKARAEAEDARQKAKDDDDSDIPTAQRKRFTRVEMARVLMERNQYKERLMELQEAVRWTEMIRASRENPAMQEKKRSSIWQFFSRLFSSSSNTTKKPEPPVNLKYNAPTSHVTPSVKKRSSTLSQLPGDKSKAFDFLSEETEASLASRREQKREQYRQVKAHVQKEDGRVQAFGWSLPQKYKQVTNGQGENKMKNLPVPVYLRPLDEKDTSMKLWCAVGVNLSGGKTRDGGSVVGASVFYKDVAGLDTEGSKQRSASQSSLDKLDQELKEQQKELKNQEELSSLVWICTSTHSATKVLIIDAVQPGNILDSFTVCNSHVLCIASVPGARETDYPAGEDLSESGQVDKASLCGSMTSNSSAETDSLLGGITVVGCSAEGVTGAATSPSTNGASPVMDKPPEMEAENSEVDENVPTAEEATEATEGNAGSAEDTVDISQTGVYTEHVFTDPLGVQIPEDLSPVYQSSNDSDAYKDQISVLPNEQDLVREEAQKMSSLLPTMWLGAQNGCLYVHSSVAQWRKCLHSIKLKDSILSIVHVKGIVLVALADGTLAIFHRGVDGQWDLSNYHLLDLGRPHHSIRCMTVVHDKVWCGYRNKIYVVQPKAMKIEKSFDAHPRKESQVRQLAWVGDGVWVSIRLDSTLRLYHAHTYQHLQDVDIEPYVSKMLGTGKLGFSFVRITALMVSCNRLWVGTGNGVIISIPLTETNKTSGVPGNRPGSVIRVYGDENSDKVTPGTFIPYCSMAHAQLCFHGHRDAVKFFVAVPGQVISPQSSSSGTDLTGDKAGPSAQEPGSQTPLKSMLVISGGEGYIDFRMGDEGGESELLGEDLPLEPSVTKAERSHLIVWQVMYGNE
Consider B1, for which the binding result with TMEM55B‐myc‐DDK is listed as “binds”.

B2: phosphorylated JIP4 (T217) (protein, UniProt O60271 1-1321)
chain: B1 chain
modifications: phosphorylated at T217
Turning to B2, the binding result with TRPML1‐mCherry [2] is given as “no binding”.

For the origin of these results see article PMC9670204.
